PubChem BioAssay AID624297 (National Center for Advancing Translational Sciences (NCATS), 2012)
Several values for one entry are separate records, joined by “and”; a condition that tells them apart may be missing. Equal entries are not always repeated. Screen size: about 340,000 compounds; about 6,200 (1.8%) were called active. The inconclusive results got no clear call from the source; some entries with a clear call stand among them for comparison. Calls come from the whole dose curve; as a rule, active = well fitted activation curve with a large enough effect; inconclusive = small, poorly fitted or top-dose-only effect; inactive = no such curve, though single readings can be large or run the other way. A potency beside an inconclusive call is a rough fit, not a confirmed value.

assay: A quantitative high throughput screen for small molecules that induce DNA re-replication in SW480 colon adenocarcinoma cells.; note: nearly all actives have a fitted effect of over 55% in size; for re-replication activation: % of control where 0% means no effect; settings: Hoechst DNA content imaging, 48 h; re-replication activation: at 46.1 µM (top of the series)
Procedure, shortened: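 Quantitative HTS format with DMSO vehicle controls; 48 hr drug incubation at 37 C, then 40 min Hoechst staining and scanning imager measurement at 405 nm excitation.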
Potency is the fitted concentration of half-maximal effect.

For `CCN1C(=O)[C@H]2[C@H]3CN=C(SCc4ccc(Cl)cc4)N3[C@@](Cc3ccccc3)(C(=O)OC)[C@H]2C1=O`, which Potency is on record?
Its Potency is inconclusive: 1.16 µM [activator, single point].

Which Potency does the source give for `O=C(CN1CCN(c2ccccn2)CC1)Nc1ccc([N+](=O)[O-])cc1C(=O)Nc1ccccc1F` here?
Its Potency is “inactive”.

With `O=C(/C=C/c1ccc(Br)cc1)c1ccc(NC(=O)c2ccco2)cc1` as the molecule, how does the Potency read?
The Potency was inconclusive: 20.6 µM [activator, single point].

For `COc1ccc(-c2sc3cc4c(cc3c2C#CC2(N)CCCCC2)OCO4)cc1`, which Potency is on record?
Its Potency is inconclusive: 7.31 µM [activator, partial curve, poor fit].

Which Potency does the source give for `Clc1ccc(OCc2nn3c(-c4ccco4)nnc3s2)c(Cl)c1` here?
Its Potency is inconclusive: 32.6 µM [activator, partial curve, poor fit].

With `CC1CC(C)CN(CCCNC(=O)c2csc3c2CCCC3)C1` (stereo not given) as the molecule, how does the Potency read?
Its Potency is inconclusive: 29.1 µM [activator, single point].

Which Potency does the source give for `CCN(CC)S(=O)(=O)c1ccc(Cl)c(C(=O)Nc2cc(C)nn2-c2ccccc2)c1` here?
The Potency was “inactive”.

With `O=C(CSCC(=O)Nc1ccccc1)N/N=C/c1c(O)ccc2ccccc12` as the molecule, how does the Potency read?
Its Potency is inconclusive: 6.31 µM [activator, full curve].

Which Potency does the source give for `COc1cc(NC(=O)c2cc3ccccc3o2)ccc1NC(=O)c1ccco1` here?
The Potency was inconclusive: 29.1 µM [activator, single point].

With `CC(C)c1ccc(/C=N/NC(=O)c2cccc(Cl)c2)cc1` as the molecule, how does the re-replication activation read?
Its re-replication activation is inconclusive: 529% [activator].

Which Potency does the source give for `Cc1ccc(CN2C(=O)C[C@@H](NC(=O)OCC3c4ccccc4-c4ccccc43)C/C=C\C2c2ccc(C)cc2)cc1` (stereo not given in full) here?
The Potency was inconclusive: 3.66 µM [activator, partial curve, poor fit].

With `CCC(C)(C)n1nnnc1CN(Cc1cc2cc(OC)ccc2[nH]c1=O)C1CCCC1` as the molecule, how does the Potency read?
The Potency was inconclusive: 16.4 µM [activator, single point].

With `Cc1ccc(-c2c3c([nH]c(=S)c2C#N)CCCC3)o1` as the molecule, how does the Potency read?
The Potency was “inactive”.

With `C=C(C)C1CC=C(CN2CCN(Cc3ccccc3)CC2)CC1` (stereo not given) as the molecule, how does the Potency read?
Its Potency is inconclusive: 2.06 µM [activator, partial curve, poor fit].

With `CCC(=O)c1cc(F)c(N2CCN(S(=O)(=O)c3ccccc3)CC2)cc1C` as the molecule, how does the Potency read?
The Potency was inconclusive: 25.9 µM [activator, single point].

For `COc1cc(/C=N\NC(C)=O)ccc1OC/C=C/c1ccccc1`, which Potency is on record?
The Potency was inconclusive: 18.4 µM [activator, single point].

With `Cc1cccc(N(C)S(=O)(=O)c2ccc(-c3cnc(C4CC4)o3)cc2)c1` as the molecule, how does the Potency read?
The Potency was active: 0.146 µM.

Which Potency does the source give for `CCc1c(C)c(C#N)c2nc3ccccc3n2c1NCc1ccccn1` here?
The Potency was inconclusive: 29.1 µM [activator, single point].

With `CSc1ccc(CN2CCC(n3nccc3NC(=O)CCCc3ccccc3)CC2)cc1` as the molecule, how does the Potency read?
The Potency was inconclusive: 18.4 µM [activator, single point].

With `Cc1cc(-c2ccccc2)n(-c2ccc(C(=O)N3CCN(c4ncccn4)CC3)cc2)n1` as the molecule, how does the Potency read?
Its Potency is “inactive”.

Which Potency does the source give for `COCCN(C(=S)Nc1ccc(C)cc1)C(C)c1cccnc1` (stereo not given) here?
The Potency was inconclusive: 20.6 µM [activator, single point].

For `O=C(OCC(=O)N1CCN(C(=O)c2ccco2)CC1)c1cc(S(=O)(=O)Nc2ccc(Cl)cc2)ccc1O`, which Potency is on record?
Its Potency is “inactive”.

With `CCCc1nnc(NC(=O)Cn2c(=O)sc3ccccc32)s1` as the molecule, how does the Potency read?
The Potency was “inactive”.

With `CCCCCC(=O)Nc1nc(C)c(-c2csc(Nc3cc(Cl)ccc3OC)n2)s1` as the molecule, how does the Potency read?
The Potency was inconclusive: 29.1 µM [activator, partial curve, poor fit].

With `Cc1cc2c(cc1C)N[C@]1(C[C@H]3CCCC(=O)N4CC[C@@H](C1)[C@@H]34)C(=NC(C)(C)CC(C)(C)C)N2` as the molecule, how does the Potency read?
Its Potency is inconclusive: 2.59 µM [activator, full curve, poor fit].

Which Potency does the source give for `COc1ccc(OC)c(S(=O)(=O)NCCC2=CCCCC2)c1` here?
Its Potency is inconclusive: 18.4 µM [activator, single point].

Which Potency does the source give for `CCOC(=O)CC(Nc1nc(N2CCOCC2)nc(N2CCOCC2)n1)c1ccccc1Cl` (stereo not given) here?
The Potency was inconclusive: 20.6 µM [activator, single point].

Which Potency does the source give for `COc1cccc(/C=c2\s/c(=C\C(=O)C(C)(C)C)[nH]c2=O)c1` here?
The Potency was inconclusive: 29.1 µM [activator, single point].

Which Potency does the source give for `O=C(COC(=O)CCCSc1nc2ccccc2[nH]1)NC(=O)NC1CCCC1` here?
The Potency was inconclusive: 7.31 µM [activator, partial curve, poor fit].

Which Potency does the source give for `Cc1cc(C)c(CN2CCC(n3nccc3NC(=O)c3ccccc3Cl)CC2)cc1C` here?
Its Potency is inconclusive: 0.0052 µM [activator, full curve, poor fit].

With `CCOC(=O)C1=C(C)C2C3C(=O)N(c4ccccc4C)C(=O)C3C1(C)C1C(=O)N(c3ccccc3C)C(=O)C21` (stereo not given) as the molecule, how does the Potency read?
The Potency was inconclusive: 0.259 µM [activator, full curve, poor fit].

With `Cc1ccc(-c2nnn(CC(=O)N(c3ccc(F)cc3)C(C(=O)NC3CCCC3)c3ccco3)n2)o1` (stereo not given) as the molecule, how does the Potency read?
The Potency was inconclusive: 32.6 µM [activator, partial curve, poor fit].

Which Potency does the source give for `Cc1cc(C)c(C#N)c(SCc2nc3ccccc3c(=O)[nH]2)n1` here?
The Potency was inconclusive: 18.4 µM [activator, partial curve, poor fit].

For `Clc1cccc(Cl)c1CSc1nnc(-c2ccncc2)s1`, which Potency is on record?
Its Potency is inconclusive: 0.92 µM [activator, full curve, poor fit].

With `Oc1c(I)cc(I)c2cccnc12` as the molecule, how does the Potency read?
Its Potency is “inactive and inconclusive: 29.9 µM [activator, single point]”.

With `CC(C)(O)c1[nH]c2cc(F)ccc2c1C(C)(C)O` as the molecule, how does the Potency read?
The Potency was inconclusive: 18.4 µM [activator, single point].

With `CCc1nnc(NC(=O)CN2CCN(c3nc(-c4ccccc4)cs3)CC2)s1` as the molecule, how does the Potency read?
Its Potency is inconclusive: 23.1 µM [activator, single point].

For `CCOC(=O)C1CCN(c2c(C(=O)c3ccccc3)cnc3ccc(Cl)cc23)CC1`, which Potency is on record?
The Potency was “inactive”.

With `CC1CCC(=O)N(CCSc2ccccc2)CC1` (stereo not given) as the molecule, how does the Potency read?
The Potency was “inactive”.

Which Potency does the source give for `Cc1ccnc(N2CCCC(C(=O)Nc3nnc(C)s3)C2)n1` (stereo not given) here?
The Potency was “inactive”.
